{
  "source": "paper PMC9440176",
  "about": "“Novel benzylidene benzofuranone analogues as potential anticancer agents: design, synthesis and in vitro evaluation based on CDK2 inhibition assays” (3 Biotech, 2022)",
  "key": {"[1]": {"test_system": "Cyclin A gene expression in HCT 116 cell lines", "experiment": "Semi-quantitative RT-PCR gene expression of Cyclin A", "format": "cell-based, Human", "details": "internal control, Table 9", "protocol": "(§1) HCT-116 cells were trypsinized and added to 1 ml TRIzol and vortexed. Samples were then allowed to stand for 5 min at room temperature. 0.2 ml of chloroform per 1 ml of TRIzol was added. The tube was later stoppered and shaken vigorously for 15 s and was allowed to stand at room temperature for 5 min. The resulting mixture was then centrifuged at 10,000×rpm for 15 min at […]. The upper aqueous phase was transferred to another clean tube followed by the addition of 0.5 ml of isopropanol per 1 ml of TRIzol. The contents were mixed gently by inverting the sample 5 times and incubated at room temperature for 5 min. Further, the tubes were centrifuged at 10,000×rpm for the next 10 min at 40 °C. […]\n(§2) A semi-quantitative reverse transcriptase polymerase chain reaction (RT-PCR) was carried out using Techno Prime system to determine the levels of β-actin and CDK-2 and CyclinA mRNA expression. […]\n(§3) The PCR mixture (final volume of 20 µL) contains 1 µL of cDNA, 10 µL of Red Taq Master Mix 2× (Ampliqon) and 1 µM of each complementary primer specific for CDK2 and CyclinA and β-actin (internal control) sequence. […] Quantification of the results could be accomplished by measuring the optical density of the bands, using the computerized imaging program Image J. The values were normalized to β-actin intensity levels (Bookout and Mangelsdorf [2003])."}, "[2]": {"test_system": "CDK2 gene expression in HCT 116 cell lines", "experiment": "Semi-quantitative RT-PCR gene expression of CDK2", "format": "cell-based, Human", "details": "internal control, Table 8", "protocol": "as §1, §2, §3"}},
  "data": [
    {"molecule": "COc1ccc(/C=C2\\Oc3c(c(OC)cc(OC)c3C3=CCN(C(C)C)CC3)C2=O)cc1OC", "note": "[NISOA4]", "values": [
      {"measurement": "Band intensity Of PCR Amplicon Of genes, β-Actin", "setting": "[1]; 12.5 μM", "result": "25,501.76"},
      {"measurement": "Band intensity Of PCR Amplicon Of genes, β-Actin", "setting": "[1]; 25 μM", "result": "25,292.08"},
      {"measurement": "Band intensity of PCR amplicon of genes, β-Actin", "setting": "[2]; 12.5 μM", "result": "25,501.761"},
      {"measurement": "Band intensity of PCR amplicon of genes, β-Actin", "setting": "[2]; 25 μM", "result": "25,292.075"}
    ]}
  ]
}
